Laboratory results reported in patent US20150174207A1 (UNIVERSITY OF MIAMI, priority 2013, published 2015).

Legend:
[1] = general procedure: Boc solid-phase peptide synthesis; Boc-Agm-SPA-MBHA resin (0.3 mmol/g) or Agm-sulfonyl-polystyrene (PS) resin (0.74 mmol/g); DIC; preformed HOBt esters for Boc-Asn-OH and Boc-Gln-OH; conditions: whole synthesis
U-87 MG cells = test: Immunocytochemistry / differentiation in reduced serum-containing medium; type: cell-based, human; conditions: JI-34 1 μM, 0.1% FBS-containing medium, 2 d; vs. DMSO control
Procedure: Cells were seeded onto coverslips in six-well plates (50,000 cells per well) in 10% FBS-containing growth medium. This medium was replaced with serum-free medium the following day for 24 h. Thereafter, GHRH agonist (JI-34, 1 μM) was added in medium supplemented with 0.1% FBS and remained for the consecutive 2 d. Control cells received vehicle (DMSO). At the end of the treatment, phase-contrast images of live cells were collected and cells were fixed in ice-cold acetone for 10 min, washed with PBS three times, and blocked with 2% goat serum in PBS for 30 min. GFAP (Abcam; 1:500 dilution) or nestin (BD Transduction Laboratories; 1:75 dilution) antibodies were added in PBS for 1 h. Anti-rabbit and anti-mouse secondary antibodies (Alexa Fluor 488; Jackson Immunoresearch) were also applied for 1 h. Coverslips were mounted in Vectashield mounting medium containing DAPI for nuclear staining (Vector Laboratories). Images were acquired on a Nikon Eclipse Ti fluorescence microscope (Nikon Instruments).

Row | Substance | final HPLC purity ([1]; 220 and 280 nm, scale of the general procedure 0.50 mmol) | crude mass ([1]; scale 0.50 mmol) | isolated mass ([1]; scale 0.50 mmol) | morphological changes (phase-contrast) (U-87 MG cells)
1 | [N-Me-Tyr^1, Fpa5^6, Gln^8, Orn^12, Abu^15, Orn^21, Nle^27, Asp^28, Agm^29] hGHRH(1-29)NH2 | >95% | 68 mg | 18 mg | 
2 | [Dat^1, Orn^12, Abu^15, Orn^21, Nle^27, Asp^28, Agm^29]hGHRH(1-29)NH2 [JI-34] |  |  |  | higher tendency toward outgrowth of projections; also recorded: more/longer astrocytic processes than cells in the control group

“Also recorded” adds a separate entry of the source.
